Test results as given in publication PMC4794898.

Protein sequences, listed by entry. Tags and fused reporters are not part of them. Residues count along the entry.
UniProt Q8ILV1: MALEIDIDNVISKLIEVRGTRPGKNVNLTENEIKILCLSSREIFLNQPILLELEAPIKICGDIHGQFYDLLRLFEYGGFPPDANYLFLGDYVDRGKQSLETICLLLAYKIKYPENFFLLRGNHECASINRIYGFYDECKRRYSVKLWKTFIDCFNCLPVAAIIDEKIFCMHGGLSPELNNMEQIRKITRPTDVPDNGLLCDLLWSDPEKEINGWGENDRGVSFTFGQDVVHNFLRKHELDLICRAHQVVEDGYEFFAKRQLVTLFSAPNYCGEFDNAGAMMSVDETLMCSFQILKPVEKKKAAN
UniProt P02769, residues 25-607: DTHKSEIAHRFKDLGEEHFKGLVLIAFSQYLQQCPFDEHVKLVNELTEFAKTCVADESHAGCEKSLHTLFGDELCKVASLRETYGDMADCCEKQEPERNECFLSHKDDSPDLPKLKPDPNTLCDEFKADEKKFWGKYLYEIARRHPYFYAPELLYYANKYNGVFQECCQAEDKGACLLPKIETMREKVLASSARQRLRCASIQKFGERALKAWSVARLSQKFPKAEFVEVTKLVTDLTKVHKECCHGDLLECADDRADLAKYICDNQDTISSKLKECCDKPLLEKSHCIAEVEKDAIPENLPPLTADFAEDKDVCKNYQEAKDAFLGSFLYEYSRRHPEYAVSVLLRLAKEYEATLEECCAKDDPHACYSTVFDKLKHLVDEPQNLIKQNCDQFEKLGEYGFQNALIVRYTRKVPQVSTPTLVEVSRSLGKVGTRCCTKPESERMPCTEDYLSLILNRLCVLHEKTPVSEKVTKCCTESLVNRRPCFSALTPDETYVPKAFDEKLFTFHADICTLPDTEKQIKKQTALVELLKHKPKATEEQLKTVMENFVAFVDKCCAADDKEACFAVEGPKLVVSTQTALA

B1: ornithine aminotransferase (OAT) (protein, UniProt Q6LFH8 1-414)
chain: MDFVKELKSSQDYMNNELTYGAHNYDPIPVVLKRGKGVFVYDIEDRRYYDFLSAYSSVNQGHCHPDILNAMINQAKKLTICSRAFFSDSLGVCERYLTNLFGYDKVLMMNTGAEASETAYKLCRKWGYEVKKIPENSAKIIVCNNNFSGRTLGCVSASTDKKCKNNFGPFVPNFLKVPYDDLEALEKELQDPNVCAFIVEPVQGEAGVIVPSDSYFPGVASLCKKYNVLFVADEVQTGLGRTGKLLCTHHYGVKPDVILLGKALSGGHYPISAILANDDVMLVLKPGEHGSTYGGNPLAAAICVEALKVLINEKLCENADKLGAPFLQNLKEQLKDSKVVREVRGKGLLCAIEFKNDLVNVWDICLKFKENGLITRSVHDKTVRLTPPLCITKEQLDECTEIIVKTVKFFDDNL
B2: phosphoethanolamine N-methyltransferase (PMT) (protein, UniProt Q8IDQ9 1-266)
chain: MTLIENLNSDKTFLENNQYTDEGVKVYEFIFGENYISSGGLEATKKILSDIELNENSKVLDIGSGLGGGCMYINEKYGAHTHGIDICSNIVNMANERVSGNNKIIFEANDILTKEFPENNFDLIYSRDAILHLSLENKNKLFQKCYKWLKPTGTLLITDYCATEKENWDDEFKEYVKQRKYTLITVEEYADILTACNFKNVVSKDLSDYWNQLLEVEHKYLHENKEEFLKLFSEKKFISLDDGWSRKIKDSKRKMQRWGYFKATKN

Columns and labels:
[1] = biological target: P. falciparum protein phosphatase type-1 (PfPP1) recombinant protein, coupled to Sepharose (Plasmodium falciparum) (UniProt Q8ILV1); test: affinity purification with mass spectrometry; PfPP1 (or BSA as control) covalently coupled to Sepharose beads; precleared total soluble extract of blood stage parasites, overnight at 4 °C; 5 washes with 50 mM Tris, 0.3 M NaCl; elution with 3 M NaSCN; SDS-PAGE, stained bands cut for MS/MS; only the target purified
[2] = biological target: BSA (bovine (from the name BSA)) (UniProt P02769); test: as above

Binder | binding [1] | binding [2]
B1 | binds | no binding
B2 | binds | no binding

Results are given in words; binding and its absence hold for the method and conditions named. In cells and extracts the contact can be indirect. These calls come from enrichment with a bait or labelling near it, and not all partners need be listed. For some of these results: No binding means not detected with the bait.
